The results in this text go back to PubChem BioAssay AID344 (DTP/NCI, 2004).

Structures are written as SMILES. The list does not hold the whole screen: it gathers tests that were run many times, whatever their T/C, doses with no T/C, and many T/C values between a quarter and a half above the control. Other doses and runs of a compound stand elsewhere. T/C: endpoint of the treated group in % of that of the vehicle group. Some entries give survivors of the animals treated and no T/C: the source files T/C as zero there, which appears to mark a toxic dose or a test without result, not a measured value. Some doses without a T/C left all or most animals alive at the check, yet need not have been tolerated: the source hardly ever lists a survival T/C far under the control, and the zero likely stands for such cases as well. Counts of survivors are from the toxicity check (mostly the fifth day) where no day follows; animals may have died later. Schedule codes are those of the source, read here as Q, the interval in days (D) or hours (H), X, the number of doses. For survival time, this PubChem deposit counts one and a half times the control or more as active, and values a quarter to a half above the control carry no call in these data; other NCI protocols may use other cut-offs. Some T/C values carry the count of animals alive at the toxicity check (mostly the fifth day); without a count, all were alive then.

The experiment deals with mice, LPC-1 plasma cell tumor ip, median survival T/C. Briefly: NCI In Vivo Anticancer Drug Screen. Data for tumor model Lieberman Plasma Cell No. 1 (LPC-1) (intraperitoneal) in unknown mice. Particulars: T/C endpoint: median survival time, higher T/C = longer survival. The protocol: The antitumor activity of compounds was measured in mice bearing transplantable tumors. Survival or tumor size were measured and the results are expressed as the measurement made in the treated group (T) divided by the measurement made in the vehicle treated control group (C). The tumor model used in this assay is Lieberman Plasma Cell No. 1 (LPC-1) (intraperitoneal) in unknown mice

[1] abbreviates: dose: 65.0 mg/kg/injection, schedule: Q01DX015 (sc), vehicle: carboxymethylcellulose (CMC).
The mark [2] stands for this setting: dose: 108.0 mg/kg/injection, schedule: Q01DX015 (sc), vehicle: carboxymethylcellulose (CMC).
Where [3] appears, read: dose: 50.0 mg/kg/injection, schedule: Q01DX028 (sc), vehicle: carboxymethylcellulose (CMC).
Setting [4] is: dose: 75.0 mg/kg/injection, schedule: Q01DX028 (sc), vehicle: carboxymethylcellulose (CMC).

In the case of `CS(=O)(=O)OCCCCCOS(C)(=O)=O`, the T/C was 141 % of control (dose: 20.0 mg/kg/injection, schedule: Q01DX028 (sc), vehicle: water); 146 % of control [9 of 10 alive] (dose: 30.0 mg/kg/injection, schedule: Q01DX028 (sc), vehicle: carboxymethylcellulose (CMC)); 128 % of control (dose: 80.0 mg/kg/injection, schedule: Q01DX028 (sc), vehicle: carboxymethylcellulose (CMC)). Also, the survivor count was 2 of 8 (dose: 80.0 mg/kg/injection, schedule: Q01DX028 (sc), vehicle: water) and 2 of 10 (dose: 120.0 mg/kg/injection, schedule: Q01DX028 (sc), vehicle: carboxymethylcellulose (CMC)).

Take `Cc1cc(N(CCCl)CCCl)ccc1C=Nc1ccc(F)cc1`: the survivor count was 6 of 10 under setting [1]; 6 of 10 under setting [2]; 4 of 10 (dose: 180.0 mg/kg/injection, schedule: Q01DX015 (sc), vehicle: carboxymethylcellulose (CMC)); 5 of 10 (dose: 300.0 mg/kg/injection, schedule: Q01DX015 (sc), vehicle: carboxymethylcellulose (CMC)).

On to `CS(=O)(=O)OCCN(CCOS(C)(=O)=O)c1ccccc1`, for which the survivor count is, setting by setting: under setting [3], 7 of 8; under setting [4], 1 of 8.

As to `O=C(O)CCCc1ccc(N(CCCl)CCCl)cc1`, the T/C is 128 % of control [9 of 10 alive] (dose: 8.0 mg/kg/injection, schedule: Q01DX007 (sc), vehicle: saline); 126 % of control [7 of 10 alive] (dose: 20.0 mg/kg/injection, schedule: Q01DX028 (sc), vehicle: carboxymethylcellulose (CMC)); 134 % of control (dose: 23.0 mg/kg/injection, schedule: Q01DX028 (sc), vehicle: methylcellulose (MC)); 136 % of control (dose: 39.0 mg/kg/injection, schedule: Q01DX028 (sc), vehicle: methylcellulose (MC)). The survivor count (dose: 10.0 mg/kg/injection, schedule: Q01DX028 (sc), vehicle: carboxymethylcellulose (CMC)) is 5 of 8 and the survivor count (dose: 40.0 mg/kg/injection, schedule: Q01DX028 (sc), vehicle: carboxymethylcellulose (CMC)) is recorded as 2 of 10.

On to `COc1cc2oc(=O)ccc2cc1CC=C(C)C`, for which the survivor count (dose: 12.5 mg/kg/injection, schedule: Q01DX028 (sc), vehicle: saline) is given as 5 of 8; the survivor count (dose: 50.0 mg/kg/injection, schedule: Q01DX028 (sc), vehicle: saline) is reported as 4 of 8; the survivor count (dose: 100.0 mg/kg/injection, schedule: Q01DX028 (sc), vehicle: saline) was 4 of 8.

`CCN(CC)CCNc1ccc(C)c2sc3ccccc3c(=O)c12` (tested in a mixture with another compound): where the note is “dose: 200.0 mg/kg/injection, schedule: Q01DX028 (sc), vehicle: saline”, the T/C is 136 % of control [7 of 8 alive].

Regarding `CN[C@H]1CCc2cc(OC)c(OC)c(OC)c2-c2ccc(OC)c(=O)cc21`, the survivor count by setting is: (dose: 2.5 mg/kg/injection, schedule: Q01DX015 (sc), vehicle: saline) 3 of 10; (dose: 5.0 mg/kg/injection, schedule: Q01DX015 (sc), vehicle: saline) 4 of 10; (dose: 5.0 mg/kg/injection, schedule: Q01DX028 (sc), vehicle: saline) 7 of 12; (dose: 10.0 mg/kg/injection, schedule: Q01DX028 (sc), vehicle: saline) 6 of 12.

On to `CN(N=O)C(N)=O`, for which the T/C (dose: 23.0 mg/kg/injection, schedule: Q01DX028 (sc), vehicle: saline) is 140 % of control.

In the case of `CC[C@H]1CN2CCc3cc(OC)c(OC)cc3[C@@H]2C[C@@H]1C[C@H]1NCCc2cc(OC)c(OC)cc21`, the survivor count runs as follows: (dose: 8.0 mg/kg/injection, schedule: Q01DX028 (sc), vehicle: saline) 8 of 8; (dose: 16.0 mg/kg/injection, schedule: Q01DX028 (sc), vehicle: saline) 6 of 6.

Consider `Cc1cc(N(CCCl)CCCl)ccc1C=Nc1ccccc1-c1ccccc1`, for which the survivor count (dose: 39.0 mg/kg/injection, schedule: Q01DX015 (sc), vehicle: carboxymethylcellulose (CMC)) was 6 of 10; the survivor count under setting [1] is recorded as 2 of 10; the survivor count under setting [2] was 3 of 10.

In the case of `COc1cc2ncccc2c2cccnc12`, the survivor count reads like this: (dose: 100.0 mg/kg/injection, schedule: Q01DX011 (sc), vehicle: saline) 3 of 8; (dose: 200.0 mg/kg/injection, schedule: Q01DX011 (sc), vehicle: saline) 0 of 8; (dose: 400.0 mg/kg/injection, schedule: Q01DX011 (sc), vehicle: saline) 0 of 8.

Turning to `CCN(CC)c1ccc2cc3ccc(=[N+](CC)CC)cc-3oc2c1`, the survivor count (dose: 16.0 mg/kg/injection, schedule: Q01DX028 (sc), vehicle: methylcellulose (MC)) is on record as 10 of 10.

Turning to `O=NN(CCF)C(=O)NC1CCCCC1`, for the setting “dose: 22.0 mg/kg/injection, schedule: Q01DX028 (sc), vehicle: carboxymethylcellulose (CMC)”, the T/C is 125 % of control [7 of 10 alive]. Further, the survivor count by setting is: under setting [3], 5 of 10; under setting [4], 1 of 10.

As to `Cn1cnc([N+](=O)[O-])c1Sc1ncnc2nc[nH]c12`, the T/C (dose: 6.25 mg/kg/injection, schedule: Q01DX028 (sc), vehicle: carboxymethylcellulose (CMC)) was 129 % of control [9 of 10 alive]; the T/C (dose: 12.5 mg/kg/injection, schedule: Q01DX028 (sc), vehicle: carboxymethylcellulose (CMC)) was 147 % of control; the T/C (dose: 25.0 mg/kg/injection, schedule: Q01DX028 (sc), vehicle: carboxymethylcellulose (CMC)) was 125 % of control [9 of 10 alive].

Turning to `CCC(CCC(C)C1CCC2C3CC=C4CC(OC(=O)CCC(=O)O)CCC4(C)C3CCC12C)C(C)C` (stereo not drawn), the survivor count by setting is: (dose: 50.0 mg/kg/injection, schedule: Q01DX028 (sc), vehicle: water) 4 of 8; (dose: 200.0 mg/kg/injection, schedule: Q01DX028 (sc), vehicle: water) 5 of 8.
